# Source: the supplement of paper PMC8728848
# This is one part of the list.
# What was measured:
# Experiment in all cases: glycan array binding signal (z-score within array); higher = stronger binding
# Details in all cases: glycan notation: IUPAC condensed, linker removed
# [1] = molecular target: Neu5Ac(a2-6)GlcNAc(b1-4)GlcNAc(b1-4)GlcNAc
# Method in brief: (§1)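 The binding signal is a Z-score computed within each array. Data were drawn from 3228 arrays in the Consortium for Functional Glycomics database, restricted to those with a known protein sequence. Scores were averaged over arrays of the same protein sequence at different concentrations or buffers, and over linkers, and negative values can be taken as non-binding.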
# Neu5Ac(a2-8)Neu5Ac = molecular target: Neu5Ac(a2-8)Neu5Ac
# Method in brief: as §1
# [2] = molecular target: Neu5Ac(a2-8)Neu5Ac(a2-3)Gal(b1-3)GalNAc(b1-4)[Neu5Ac(a2-3)]Gal(b1-4)Glc
# Method in brief: as §1
# [3] = molecular target: Neu5Ac(a2-8)Neu5Ac(a2-3)Gal(b1-3)GalNAc(b1-4)[Neu5Ac(a2-8)Neu5Ac(a2-3)]Gal(b1-4)Glc
# Method in brief: as §1
# [4] = molecular target: Neu5Ac(a2-8)Neu5Ac(a2-3)Gal(b1-4)Glc
# Method in brief: as §1
# [5] = molecular target: Neu5Ac(a2-8)Neu5Ac(a2-3)Gal(b1-4)GlcNAc
# Method in brief: as §1
# [6] = molecular target: Neu5Ac(a2-8)Neu5Ac(a2-3)[Gal(b1-3)GalNAc(b1-4)]Gal(b1-4)Glc
# Method in brief: as §1
# [7] = molecular target: Neu5Ac(a2-8)Neu5Ac(a2-3)[GalNAc(b1-4)]Gal(b1-4)Glc
# Method in brief: as §1
# [8] = molecular target: Neu5Ac(a2-8)Neu5Ac(a2-8)Neu5Ac
# Method in brief: as §1
# [9] = molecular target: Neu5Ac(a2-8)Neu5Ac(a2-8)Neu5Ac(a2-3)Gal(b1-4)Glc
# Method in brief: as §1
# [10] = molecular target: Neu5Ac(a2-8)Neu5Ac(a2-8)Neu5Ac(a2-3)[Gal(b1-3)GalNAc(b1-4)]Gal(b1-4)Glc
# Method in brief: as §1
# [11] = molecular target: Neu5Ac(a2-8)Neu5Ac(a2-8)Neu5Ac(a2-3)[GalNAc(b1-4)]Gal(b1-4)Glc
# Method in brief: as §1
# [12] = molecular target: Neu5Ac(a2-8)Neu5Ac(a2-8)Neu5Ac(a2-8)Neu5Ac(a2-3)[GalNAc(b1-4)]Gal(b1-4)Glc
# Method in brief: as §1
# [13] = molecular target: Neu5Ac(a2-8)Neu5Gc(a2-3)Gal(b1-4)GlcNAc
# Method in brief: as §1
# [14] = molecular target: Neu5Ac(b2-6)Gal(b1-4)GlcNAc
# Method in brief: as §1
# Neu5Ac(b2-6)GalNAc = molecular target: Neu5Ac(b2-6)GalNAc
# Method in brief: as §1
# [15] = molecular target: Neu5Ac9Ac(a2-3)Gal(b1-4)GlcNAc
# Method in brief: as §1
# [16] = molecular target: Neu5Ac9Ac(a2-6)Gal(b1-4)GlcNAc
# Method in brief: as §1
# [17] = molecular target: Neu5Gc(a2-3)Gal(b1-3)GlcNAc
# Method in brief: as §1
# [18] = molecular target: Neu5Gc(a2-3)Gal(b1-3)[Fuc(a1-4)]GlcNAc
# Method in brief: as §1
# Neu5Gc(a2-3)Gal(b1-4)Glc = molecular target: Neu5Gc(a2-3)Gal(b1-4)Glc
# Method in brief: as §1
# [19] = molecular target: Neu5Gc(a2-3)Gal(b1-4)GlcNAc
# Method in brief: as §1
# [20] = molecular target: Neu5Gc(a2-3)Gal(b1-4)GlcNAc(b1-3)Gal(b1-4)GlcNAc(b1-2)Man(a1-3)[Neu5Gc(a2-3)Gal(b1-4)GlcNAc(b1-3)Gal(b1-4)GlcNAc(b1-2)Man(a1-6)]Man(b1-4)GlcNAc(b1-4)GlcNAc
# Method in brief: as §1
# [21] = molecular target: Neu5Gc(a2-3)Gal(b1-4)[Fuc(a1-3)]GlcNAc
# Method in brief: as §1
# [22] = molecular target: Neu5Gc(a2-6)Gal(b1-4)GlcNAc
# Method in brief: as §1
# Neu5Gc(a2-6)GalNAc = molecular target: Neu5Gc(a2-6)GalNAc
# Method in brief: as §1
# [23] = molecular target: Neu5Gc(a2-8)Neu5Ac(a2-3)Gal(b1-4)GlcNAc
# Method in brief: as §1
# [24] = molecular target: Neu5Gc(a2-8)Neu5Gc(a2-3)Gal(b1-4)GlcNAc
# Method in brief: as §1
# [25] = molecular target: Neu5Gc(a2-8)Neu5Gc(a2-3)Gal(b1-4)GlcNAc(b1-3)Gal(b1-4)GlcNAc
# Method in brief: as §1
# [26] = molecular target: Neu5Gc(a2-8)Neu5Gc(a2-6)Gal(b1-4)GlcNAc
# Method in brief: as §1
# [27] = molecular target: Neu5Gc(b2-6)Gal(b1-4)GlcNAc
# Method in brief: as §1
binder,measurement,setting,value
"HopZSSI-T (Helicobacter pylori), B5Z6D0 (protein) MGSSHHHHHHSSGLVPRGSHMENLYFQGEDNGFFISAGYQIGEAAQMVKNTGELKKLSDTYENLSNLLTNFNNLNQAVTNASSPSEINAAIDNLKANTQGLTGEKTNSPAYQAVYLALNAAVGLWNVIAYNVQCGPGNSSQQSVTFEGQPGHNSSSINCNLTGYNNGVSGPLSIDNFKQLNQAYQVLQQALKQGVPVLNNTNQKIEVKVTTQTNGQSSKETTTTTTTNDAQTLLQEASKMIDVLTTNCPWVNHNPGQNGGAPWGLIRQECVSGFATEFSAVTSMIKNAQEIVTQAQSLNANQNNQNAPQDFNPYTSADRAFAQNMLNHAQAQAKILELADQMKKDLNTIPSQFITNYLAACRIDGTTPSQGVTNNTWGAGCAYVEETITALNNSLAHFGTQAEQIKQSELLARTILDFRGSLSTLNSTYNSITTTASNTPNSPFLKNLISQSTNPNNPGGLQAVYQVNQSAYSQLLSATQELGHNPFRRIGLISSQT",glycan array binding signal (z-score),[1],-0.141
same,glycan array binding signal (z-score),Neu5Ac(a2-8)Neu5Ac,0.598
same,glycan array binding signal (z-score),[2],0.055
same,glycan array binding signal (z-score),[3],0.05
same,glycan array binding signal (z-score),[4],-0.031
same,glycan array binding signal (z-score),[5],-0.425
same,glycan array binding signal (z-score),[6],-0.422
same,glycan array binding signal (z-score),[7],1
same,glycan array binding signal (z-score),[8],-0.186
same,glycan array binding signal (z-score),[9],0.179
same,glycan array binding signal (z-score),[10],-1.01
same,glycan array binding signal (z-score),[11],1.09
same,glycan array binding signal (z-score),[12],-0.01
same,glycan array binding signal (z-score),[13],-0.272
same,glycan array binding signal (z-score),[14],-0.701
same,glycan array binding signal (z-score),Neu5Ac(b2-6)GalNAc,-0.314
same,glycan array binding signal (z-score),[15],-0.013
same,glycan array binding signal (z-score),[16],-0.582
same,glycan array binding signal (z-score),[17],0.035
same,glycan array binding signal (z-score),[18],-0.495
same,glycan array binding signal (z-score),Neu5Gc(a2-3)Gal(b1-4)Glc,-0.125
same,glycan array binding signal (z-score),[19],-0.047
same,glycan array binding signal (z-score),[20],1.53
same,glycan array binding signal (z-score),[21],-0.344
same,glycan array binding signal (z-score),[22],0.129
same,glycan array binding signal (z-score),Neu5Gc(a2-6)GalNAc,-0.3
same,glycan array binding signal (z-score),[23],0.067
same,glycan array binding signal (z-score),[24],-0.328
same,glycan array binding signal (z-score),[25],-0.129
same,glycan array binding signal (z-score),[26],0.181
same,glycan array binding signal (z-score),[27],-0.678

# Some of the entries above, reformatted.
binder | measurement | setting | value
HopZSSI-T (Helicobacter pylori), B5Z6D0 (protein) MGSSHHHHHHSSGLVPRGSHMENLYFQGEDNGFFISAGYQIGEAAQMVKNTGELKKLSDTYENLSNLLTNFNNLNQAVTNASSPSEINAAIDNLKANTQGLTGEKTNSPAYQAVYLALNAAVGLWNVIAYNVQCGPGNSSQQSVTFEGQPGHNSSSINCNLTGYNNGVSGPLSIDNFKQLNQAYQVLQQALKQGVPVLNNTNQKIEVKVTTQTNGQSSKETTTTTTTNDAQTLLQEASKMIDVLTTNCPWVNHNPGQNGGAPWGLIRQECVSGFATEFSAVTSMIKNAQEIVTQAQSLNANQNNQNAPQDFNPYTSADRAFAQNMLNHAQAQAKILELADQMKKDLNTIPSQFITNYLAACRIDGTTPSQGVTNNTWGAGCAYVEETITALNNSLAHFGTQAEQIKQSELLARTILDFRGSLSTLNSTYNSITTTASNTPNSPFLKNLISQSTNPNNPGGLQAVYQVNQSAYSQLLSATQELGHNPFRRIGLISSQT | glycan array binding signal (z-score) | [7] | 1
same | glycan array binding signal (z-score) | [10] | -1.01
